PubChem BioAssay AID1259425, University of Nebraska Medical Center – 2018

Test: 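Find knockdowns that reproduce the gene expression pattern seen when KSR1 is lost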 (primary screen)
Cell system: HCT116 human colon cancer cells
Knock-down reagent: siRNA pool against human genes, 50 nM siRNA
Detection: 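mRNA of six signature genes measured together by branched-DNA assay after 50 nM siRNA pool, blank removed, divided by geometric mean of two housekeeping genes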
Reading the numbers: BNIP3L mRNA: higher = more BNIP3L transcript after knockdown; NDRG1 mRNA: higher = more NDRG1 transcript after knockdown
In all, the deposit lists about 14,000 reagents; shown is a random part of them. Further read-outs or replicates are left out here. Not stated in the record: the time to read-out.

What did the screen give for VASH1 (vasohibin 1)?
BNIP3L mRNA, set 1: 0.145; NDRG1 mRNA, set 1: 0.226

With AOPEP (aminopeptidase O (putative)), how do the results read?
BNIP3L mRNA, set 1: 0.138; NDRG1 mRNA, set 1: 0.2

What is on record for NMBR (neuromedin B receptor)?
BNIP3L mRNA, set 1: 0.152; NDRG1 mRNA, set 1: 0.139

How did the screen score DHH (desert hedgehog signaling molecule)?
BNIP3L mRNA, set 1: 0.101; NDRG1 mRNA, set 1: 0.142

For CLIC1 (CLIC family member 1), what does the deposit list?
BNIP3L mRNA, set 1: 0.0494; NDRG1 mRNA, set 1: 0.514

How did the screen score ADGRG6 (adhesion G protein-coupled receptor G6)?
BNIP3L mRNA, set 1: 0.226; NDRG1 mRNA, set 1: 0.368

Which result is listed for ITGB1BP2 (integrin subunit beta 1 binding protein 2)?
BNIP3L mRNA, set 1: 0.0807; NDRG1 mRNA, set 1: 0.205

How did the screen score OPN3 (opsin 3)?
BNIP3L mRNA, set 1: 0.105; NDRG1 mRNA, set 1: 0.257

What is on record for DECR1 (2,4-dienoyl-CoA reductase 1)?
BNIP3L mRNA, set 1: 0.0789; NDRG1 mRNA, set 1: 0.0895

For DDT (D-dopachrome tautomerase), what does the deposit list?
BNIP3L mRNA, set 1: 0.0566; NDRG1 mRNA, set 1: 0.228

What is on record for GRAP (GRB2 related adaptor protein)?
BNIP3L mRNA, set 1: 0.0703; NDRG1 mRNA, set 1: 0.272

What did the screen give for FRMPD1 (FERM and PDZ domain containing 1)?
BNIP3L mRNA, set 1: 0.0932; NDRG1 mRNA, set 1: 0.209

How did the screen score DYNLRB1 (dynein light chain roadblock-type 1)?
BNIP3L mRNA, set 1: 0.0711; NDRG1 mRNA, set 1: 0.115

For CD320 (CD320 molecule), what does the deposit list?
BNIP3L mRNA, set 1: 0.0994; NDRG1 mRNA, set 1: 0.477

For DIPK2B (divergent protein kinase domain 2B), what does the deposit list?
BNIP3L mRNA, set 1: 0.176; NDRG1 mRNA, set 1: 0.151

What is on record for TLE3 (TLE family member 3, transcriptional corepressor)?
BNIP3L mRNA, set 1: 0.19; NDRG1 mRNA, set 1: 0.364

With GBA2 (glucosylceramidase beta 2), what was measured?
BNIP3L mRNA, set 1: 0.179; NDRG1 mRNA, set 1: 0.198

How did the screen score MTMR3 (myotubularin related protein 3)?
BNIP3L mRNA, set 1: 0.0888; NDRG1 mRNA, set 1: 0.154

What did the screen give for NEK1 (NIMA related kinase 1)?
BNIP3L mRNA, set 1: 0.0401; NDRG1 mRNA, set 1: 0.097

For ICAM4, what does the deposit list?
BNIP3L mRNA, set 1: 0.223; NDRG1 mRNA, set 1: 0.851

With PTGER3 (prostaglandin E receptor 3), what was measured?
BNIP3L mRNA, set 1: 0.388; NDRG1 mRNA, set 1: 0.577

What did the screen give for SCUBE1 (signal peptide, CUB domain and EGF like domain containing 1)?
BNIP3L mRNA, set 1: 0.152; NDRG1 mRNA, set 1: 0.424

With EMC1 (ER membrane protein complex subunit 1), how do the results read?
BNIP3L mRNA, set 1: 0.0795; NDRG1 mRNA, set 1: 0.128

For DNAJB5 (DnaJ heat shock protein family (Hsp40) member B5), what does the deposit list?
BNIP3L mRNA, set 1: 0.133; NDRG1 mRNA, set 1: 0.171

How did the screen score FEM1C (fem-1 homolog C)?
BNIP3L mRNA, set 1: 0.164; NDRG1 mRNA, set 1: 0.0974

For PMCH (pro-melanin concentrating hormone), what was measured?
BNIP3L mRNA, set 1: 0.12; NDRG1 mRNA, set 1: 0.257

What did the screen give for SP110 (SP110 nuclear body protein)?
BNIP3L mRNA, set 1: 0.0648; NDRG1 mRNA, set 1: 0.145

For XCL1 (X-C motif chemokine ligand 1), what does the deposit list?
BNIP3L mRNA, set 1: 0.128; NDRG1 mRNA, set 1: 0.333

For PDE7B (phosphodiesterase 7B), what does the deposit list?
BNIP3L mRNA, set 1: 0.086; NDRG1 mRNA, set 1: 0.314

How did the screen score SLC52A1?
BNIP3L mRNA, set 1: 0.196; NDRG1 mRNA, set 1: 0.337

With GSR (glutathione-disulfide reductase), what does the deposit list?
BNIP3L mRNA, set 1: 0.131; NDRG1 mRNA, set 1: 0.386

For ZP3 (zona pellucida glycoprotein 3), what was measured?
BNIP3L mRNA, set 1: 0.0627; NDRG1 mRNA, set 1: 0.105

With NRCAM (neuronal cell adhesion molecule), what was measured?
BNIP3L mRNA, set 1: 0.115; NDRG1 mRNA, set 1: 0.0857

What did the screen give for FRAS1 (Fraser extracellular matrix complex subunit 1)?
BNIP3L mRNA, set 1: 0.132; NDRG1 mRNA, set 1: 0.484

What did the screen give for TAL1?
BNIP3L mRNA, set 1: 0.0651; NDRG1 mRNA, set 1: 0.108

For GPR101 (G protein-coupled receptor 101), what does the deposit list?
BNIP3L mRNA, set 1: 0.145; NDRG1 mRNA, set 1: 0.0699
